Assay results as given in patent US20250283871A1, “COMPOSITIONS AND METHODS FOR MODULATING THE INTERACTION BETWEEN SS18-SSX FUSION ONCOPROTEIN AND NUCLEOSOMES” (Dana-Farber Cancer Institute, Inc., priority 2020, published 2025).

System: BAF complex subunits and histone proteins
Assay: Mass spectrometry proteomics of purified HA-SS18 WT and HA-SS18-SSX1 complexes (Tables 5A-5E)
Set-up: species or system human
[1] = HA-SS18SSX1 purification, NE (soluble nuclear extract) fraction, HEK-293T, peptides per identified protein
[2] = HA-SS18WT_NE_peptides: HA-SS18 WT complexes purified from nuclear extract (NE), HEK-293T, label = protein identified (Gene Symbol)
[3] = HA-SS18SSX1_NE_peptides: protein co-purified with HA-SS18-SSX1 BAF complexes from soluble nuclear extract (NE), HEK-293T cells
[4] = HA-SS18WT_NE_peptides: proteins co-purified with HA-SS18 WT from nuclear extract (NE), HEK-293T
[5] = HA-SS18SSX1_CHR_peptides: protein identified in the HA-SS18-SSX1 purification from solubilized chromatin (CHR), HEK-293T
[6] = HA-SS18WT_CHR_peptides: HA-SS18 WT purification from nuclease-treated solubilized chromatin (CHR), HEK-293T, label = protein identified

Molecule | Total (total peptides) [1] | Unique (unique peptides) [1] | Total (peptides) [2] | Unique (peptides) [2] | Total (peptides) [3] | Unique (peptides) [3] | Total (peptides) [4] | Unique (peptides) [4] | Total (total peptides) [5] | Unique (unique peptides) [5] | Total (peptides) [6] | Unique (peptides) [6]
ATP5C1 (protein, UniProt P36542 26-298, looked up) ATP synthase F(1) complex …: ATLKDITRRLKSIKNIQKITKSMKMVAAAKYARAERELKPARIYGLGSLALYEKADIKGPEDKKKHLLIGVSSDRGLCGAIHSSIAKQMKSEVATLTAAGKEVMLVGIGDKIRGILYRTHSDQFLVAFKEVGRKPPTFGDASVIALELLNSGYEFDEGSIIFNKFRSVISYKTEEKPIFSLNTVASADSMSIYDDIDADVLQNYQEYNLANIIYYSLKESTTSEQSARMTAMDNASKNASEMIDKLTLTFNRTRQAVITKELIEIISGAAALD | 9 | 6 | 12 | 8 | – | – | – | – | – | – | – | –
SLC1A5 (protein, UniProt Q15758 1-541, looked up) Neutral amino acid …: MVADPPRDSKGLAAAEPTANGGLALASIEDQGAAAGGYCGSRDQVRRCLRANLLVLLTVVAVVAGVALGLGVSGAGGALALGPERLSAFVFPGELLLRLLRMIILPLVVCSLIGGAASLDPGALGRLGAWALLFFLVTTLLASALGVGLALALQPGAASAAINASVGAAGSAENAPSKEVLDSFLDLARNIFPSNLVSAAFRSYSTTYEERNITGTRVKVPVGQEVEGMNILGLVVFAIVFGVALRKLGPEGELLIRFFNSFNEATMVLVSWIMWYAPVGIMFLVAGKIVEMEDVGLLFARLGKYILCCLLGHAIHGLLVLPLIYFLFTRKNPYRFLWGIVTPLATAFGTSSSSATLPLMMKCVEENNGVAKHISRFILPIGATVNMDGAALFQCVAAVFIAQLSQQSLDFVKIITILVTATASSVGAAGIPAGGVLTLAIILEAVNLPVDHISLILAVDWLVDRSCTVLNVEGDALGAGLLQNYVDRTESRSTEPELIQVKSELPLDPLPVPTEEGNPLLKHYRGPAGDATVASEKESVM | 9 | 8 | 6 | 5 | – | – | – | – | – | – | – | –
ACADM (protein, UniProt P11310 26-421, looked up) Medium-chain specific …: KANRQREPGLGFSFEFTEQQKEFQATARKFAREEIIPVAAEYDKTGEYPVPLIRRAWELGLMNTHIPENCGGLGLGTFDACLISEELAYGCTGVQTAIEGNSLGQMPIIIAGNDQQKKKYLGRMTEEPLMCAYCVTEPGAGSDVAGIKTKAEKKGDEYIINGQKMWITNGGKANWYFLLARSDPDPKAPANKAFTGFIVEADTPGIQIGRKELNMGQRCSDTRGIVFEDVKVPKENVLIGDGAGFKVAMGAFDKTRPVVAAGAVGLAQRALDEATKYALERKTFGKLLVEHQAISFMLAEMAMKVELARMSYQRAAWEVDSGRRNTYYASIAKAFAGDIANQLATDAVQILGGNGFNTEYPVEKLMRDAKIYQIYEGTSQIQRLIVAREHIDKYKN | 8 | 8 | 10 | 9 | – | – | – | – | – | – | – | –
PDS5A (protein, UniProt Q29RF7 1-1337, looked up) Sister chromatid cohesion …: MDFTAQPKPATALCGVVSADGKIAYPPGVKEITDKITTDEMIKRLKMVVKTFMDMDQDSEDEKQQYLPLALHLASEFFLRNPNKDVRLLVACCLADIFRIYAPEAPYTSHDKLKDIFLFITRQLKGLEDTKSPQFNRYFYLLENLAWVKSYNICFELEDCNEIFIQLFRTLFSVINNSHNKKVQMHMLDLMSSIIMEGDGVTQELLDSILINLIPAHKNLNKQSFDLAKVLLKRTVQTIEACIANFFNQVLVLGRSSVSDLSEHVFDLIQELFAIDPHLLLSVMPQLEFKLKSNDGEERLAVVRLLAKLFGSKDSDLATQNRPLWQCFLGRFNDIHVPVRLESVKFASHCLMNHPDLAKDLTEYLKVRSHDPEEAIRHDVIVTIITAAKRDLALVNDQLLGFVRERTLDKRWRVRKEAMMGLAQLYKKYCLHGEAGKEAAEKVSWIKDKLLHIYYQNSIDDKLLVEKIFAQYLVPHNLETEERMKCLYYLYASLDPNAVKALNEMWKCQNMLRSHVRELLDLHKQPTSEANCSAMFGKLMTIAKNLPDPGKAQDFVKKFNQVLGDDEKLRSQLELLISPTCSCKQADICVREIARKLANPKQPTNPFLEMVKFLLERIAPVHIDSEAISALVKLMNKSIEGTADDEEEGVSPDTAIRSGLELLKVLSFTHPTSFHSAETYESLLQCLRMEDDKVAEAAIQIFRNTGHKIETDLPQIRSTLIPILHQKAKRGTPHQAKQAVHCIHAIFTNKEVQLAQIFEPLSRSLNADVPEQLITPLVSLGHISMLAPDQFASPMKSVVANFIVKDLLMNDRSTGEKNGKLWSPDEEVSPEVLAKVQAIKLLVRWLLGMKNNQSKSANSTLRLLSAMLVSEGDLTEQKRISKSDMSRLRLAAGSAIMKLAQEPCYHEIITPEQFQLCALVINDECYQVRQIFAQKLHKALVKLLLPLEYMAIFALCAKDPVKERRAHARQCLLKNISIRREYIKQNPMATEKLLSLLPEYVVPYMIHLLAHDPDFTRSQDVDQLRDIKECLWFMLEVLMTKNENNSHAFMKKMAENIKLTRDAQSPDESKTNEKLYTVCDVALCVINSKSALCNADSPKDPVLPMKFFTQPEKDFCNDKSYISEETRVLLLTGKPKPAGVLGAVNKPLSATGRKPYVRSTGTETGSNINVNSELNPSTGNRSREQSSEAAETGVSENEENPVRIISVTPVKNIDPVKNKEINSDQATQGNISSDRGKKRTVTAAGAENIQQKTDEKVDESGPPAPSKPRRGRRPKSESQGNATKNDDLNKPINKGRKRAAVGQESPGGLEAGNAKAPKLQDLAKKAAPAERQIDLQR | 8 | 8 | 7 | 7 | – | – | – | – | – | – | – | –
HADHB (protein, UniProt P55084 34-474, looked up) Trifunctional enzyme subunit …: AAPAVQTKTKKTLAKPNIRNVVVVDGVRTPFLLSGTSYKDLMPHDLARAALTGLLHRTSVPKEVVDYIIFGTVIQEVKTSNVAREAALGAGFSDKTPAHTVTMACISANQAMTTGVGLIASGQCDVIVAGGVELMSDVPIRHSRKMRKLMLDLNKAKSMGQRLSLISKFRFNFLAPELPAVSEFSTSETMGHSADRLAAAFAVSRLEQDEYALRSHSLAKKAQDEGLLSDVVPFKVPGKDTVTKDNGIRPSSLEQMAKLKPAFIKPYGTVTAANSSFLTDGASAMLIMAEEKALAMGYKPKAYLRDFMYVSQDPKDQLLLGPTYATPKVLEKAGLTMNDIDAFEFHEAFSGQILANFKAMDSDWFAENYMGRKTKVGLPPLEKFNNWGGSLSLGHPFGATGCRLVMAAANRLRKEGGQYGLVAACAAGGQGHAMIVEAYPK | 9 | 8 | 6 | 6 | – | – | – | – | – | – | – | –
SUCLA2 (protein, UniProt Q9P2R7 53-463, looked up) Succinate--CoA ligase …: LSLHEYMSMELLQEAGVSVPKGYVAKSPDEAYAIAKKLGSKDVVIKAQVLAGGRGKGTFESGLKGGVKIVFSPEEAKAVSSQMIGKKLFTKQTGEKGRICNQVLVCERKYPRREYYFAITMERSFQGPVLIGSSHGGVNIEDVAAESPEAIIKEPIDIEEGIKKEQALQLAQKMGFPPNIVESAAENMVKLYSLFLKYDATMIEINPMVEDSDGAVLCMDAKINFDSNSAYRQKKIFDLQDWTQEDERDKDAAKANLNYIGLDGNIGCLVNGAGLAMATMDIIKLHGGTPANFLDVGGGATVHQVTEAFKLITSDKKVLAILVNIFGGIMRCDVIAQGIVMAVKDLEIKIPVVVRLQGTRVDDAKALIADSGLKILACDDLDEAARMVVKLSEIVTLAKQAHVDVKFQLPI | 9 | 6 | 5 | 5 | 1 | 1 | 1 | 1 | – | – | – | –
POGZ (protein, UniProt Q7Z3K3 1-1410, looked up) Pogo transposable element …: MADTDLFMECEEEELEPWQKISDVIEDSVVEDYNSVDKTTTVSVSQQPVSAPVPIAAHASVAGHLSTSTTVSSSGAQNSDSTKKTLVTLIANNNAGNPLVQQGGQPLILTQNPAPGLGTMVTQPVLRPVQVMQNANHVTSSPVASQPIFITTQGFPVRNVRPVQNAMNQVGIVLNVQQGQTVRPITLVPAPGTQFVKPTVGVPQVFSQMTPVRPGSTMPVRPTTNTFTTVIPATLTIRSTVPQSQSQQTKSTPSTSTTPTATQPTSLGQLAVQSPGQSNQTTNPKLAPSFPSPPAVSIASFVTVKRPGVTGENSNEVAKLVNTLNTIPSLGQSPGPVVVSNNSSAHGSQRTSGPESSMKVTSSIPVFDLQDGGRKICPRCNAQFRVTEALRGHMCYCCPEMVEYQKKGKSLDSEPSVPSAAKPPSPEKTAPVASTPSSTPIPALSPPTKVPEPNENVGDAVQTKLIMLVDDFYYGRDGGKVAQLTNFPKVATSFRCPHCTKRLKNNIRFMNHMKHHVELDQQNGEVDGHTICQHCYRQFSTPFQLQCHLENVHSPYESTTKCKICEWAFESEPLFLQHMKDTHKPGEMPYVCQVCQYRSSLYSEVDVHFRMIHEDTRHLLCPYCLKVFKNGNAFQQHYMRHQKRNVYHCNKCRLQFLFAKDKIEHKLQHHKTFRKPKQLEGLKPGTKVTIRASRGQPRTVPVSSNDTPPSALQEAAPLTSSMDPLPVFLYPPVQRSIQKRAVRKMSVMGRQTCLECSFEIPDFPNHFPTYVHCSLCRYSTCCSRAYANHMINNHVPRKSPKYLALFKNSVSGIKLACTSCTFVTSVGDAMAKHLVFNPSHRSSSILPRGLTWIAHSRHGQTRDRVHDRNVKNMYPPPSFPTNKAATVKSAGATPAEPEELLTPLAPALPSPASTATPPPTPTHPQALALPPLATEGAECLNVDDQDEGSPVTQEPELASGGGGSGGVGKKEQLSVKKLRVVLFALCCNTEQAAEHFRNPQRRIRRWLRRFQASQGENLEGKYLSFEAEEKLAEWVLTQREQQLPVNEETLFQKATKIGRSLEGGFKISYEWAVRFMLRHHLTPHARRAVAHTLPKDVAENAGLFIDFVQRQIHNQDLPLSMIVAIDEISLFLDTEVLSSDDRKENALQTVGTGEPWCDVVLAILADGTVLPTLVFYRGQMDQPANMPDSILLEAKESGYSDDEIMELWSTRVWQKHTACQRSKGMLVMDCHRTHLSEEVLAMLSASSTLPAVVPAGCSSKIQPLDVCIKRTVKNFLHKKWKEQAREMADTACDSDVLLQLVLVWLGEVLGVIGDCPELVQRSFLVASVLPGPDGNINSPTRNADMQEELIASLEEQLKLSGEHSESSTPRPRSSPEETIEPESLHQLFEGESETESFYGFEEADLDLMEI | – | – | – | – | – | – | – | – | 15 | 14 | 10 | 10
